The record followed here is PMC9151517.

Chains of the proteins cited; added tags and fusions are not shown. Residues count along the entry.
UniProt P58281, residues 88-960: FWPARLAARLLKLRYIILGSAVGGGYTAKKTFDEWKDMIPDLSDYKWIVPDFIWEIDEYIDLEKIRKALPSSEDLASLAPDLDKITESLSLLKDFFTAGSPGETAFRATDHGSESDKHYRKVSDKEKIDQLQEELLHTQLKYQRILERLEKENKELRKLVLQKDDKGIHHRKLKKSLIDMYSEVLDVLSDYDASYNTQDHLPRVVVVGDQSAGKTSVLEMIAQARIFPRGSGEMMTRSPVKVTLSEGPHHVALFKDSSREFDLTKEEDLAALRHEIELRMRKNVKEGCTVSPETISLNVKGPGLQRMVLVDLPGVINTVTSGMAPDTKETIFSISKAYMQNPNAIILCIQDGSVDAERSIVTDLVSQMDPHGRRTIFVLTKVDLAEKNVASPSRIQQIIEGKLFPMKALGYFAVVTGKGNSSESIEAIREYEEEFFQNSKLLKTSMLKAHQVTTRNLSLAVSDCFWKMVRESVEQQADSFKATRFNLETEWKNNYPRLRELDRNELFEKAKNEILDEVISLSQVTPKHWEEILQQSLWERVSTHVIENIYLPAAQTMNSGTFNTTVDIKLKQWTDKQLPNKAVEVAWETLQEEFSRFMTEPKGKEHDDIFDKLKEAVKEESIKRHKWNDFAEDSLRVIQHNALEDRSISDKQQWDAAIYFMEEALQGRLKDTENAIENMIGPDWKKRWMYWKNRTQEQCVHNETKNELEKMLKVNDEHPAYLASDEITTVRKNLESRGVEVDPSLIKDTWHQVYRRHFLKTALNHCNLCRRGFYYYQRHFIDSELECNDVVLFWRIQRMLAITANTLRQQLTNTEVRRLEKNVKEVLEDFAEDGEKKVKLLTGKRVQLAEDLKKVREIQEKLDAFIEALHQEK

No constants are given. Whether binding was seen depends on the method and setting. Binding seen in cells or lysates may run through a third protein. Some entries that bind do so weakly or less than the wild type.

For the assay, the target named is Optic Atrophy 1 (OPA1) (mouse (endogenous in MEFs)) (UniProt P58281). The assay can be described thus: cross-linking; Src+/+ and Src-/- MEFs treated with the crosslinker bismaleimidohexane (1 mM) during 30 min at 37 °C, directly processed for SDS-PAGE; immunoblotting of OPA1 monomers and oligomers. For orientation: A western blot detects proteins with antibodies after separation by electrophoresis.

Take “Optic Atrophy 1 (OPA1) (from UniProt P58281 88-960)”: the binding result is recorded as “binds”.
